The record followed here is paper PMC6094050, “O-GlcNAcylation Signal Mediates Proteasome Inhibitor Resistance in Cancer Cells by Stabilizing NRF1” (Molecular and Cellular Biology, 2018).

In experiment [1] the target is 3×FLAG-mNRF1 M2 (Δ243-580) (mouse) (UniProt Q61985). The experiment in a line: co-IP; soluble nuclear extracts of 293F cells that stably express FLAG-tagged NRF1 or its deletion mutants, precipitated with anti-FLAG antibody; immunoblot for OGT, HCF-1 and FLAG. In general terms: A western blot detects proteins with antibodies after separation by electrophoresis.
Experiment [2] concerns the target 3×FLAG-mNRF1 M1 (Δ464–580) (mouse) (UniProt Q61985). Described as above.
The target in experiment [3] is T1, GST-OGT (GST fusion of full-length human O-linked N-acetylglucosamine transferase) (human) (UniProt O15294).
T1 sequence: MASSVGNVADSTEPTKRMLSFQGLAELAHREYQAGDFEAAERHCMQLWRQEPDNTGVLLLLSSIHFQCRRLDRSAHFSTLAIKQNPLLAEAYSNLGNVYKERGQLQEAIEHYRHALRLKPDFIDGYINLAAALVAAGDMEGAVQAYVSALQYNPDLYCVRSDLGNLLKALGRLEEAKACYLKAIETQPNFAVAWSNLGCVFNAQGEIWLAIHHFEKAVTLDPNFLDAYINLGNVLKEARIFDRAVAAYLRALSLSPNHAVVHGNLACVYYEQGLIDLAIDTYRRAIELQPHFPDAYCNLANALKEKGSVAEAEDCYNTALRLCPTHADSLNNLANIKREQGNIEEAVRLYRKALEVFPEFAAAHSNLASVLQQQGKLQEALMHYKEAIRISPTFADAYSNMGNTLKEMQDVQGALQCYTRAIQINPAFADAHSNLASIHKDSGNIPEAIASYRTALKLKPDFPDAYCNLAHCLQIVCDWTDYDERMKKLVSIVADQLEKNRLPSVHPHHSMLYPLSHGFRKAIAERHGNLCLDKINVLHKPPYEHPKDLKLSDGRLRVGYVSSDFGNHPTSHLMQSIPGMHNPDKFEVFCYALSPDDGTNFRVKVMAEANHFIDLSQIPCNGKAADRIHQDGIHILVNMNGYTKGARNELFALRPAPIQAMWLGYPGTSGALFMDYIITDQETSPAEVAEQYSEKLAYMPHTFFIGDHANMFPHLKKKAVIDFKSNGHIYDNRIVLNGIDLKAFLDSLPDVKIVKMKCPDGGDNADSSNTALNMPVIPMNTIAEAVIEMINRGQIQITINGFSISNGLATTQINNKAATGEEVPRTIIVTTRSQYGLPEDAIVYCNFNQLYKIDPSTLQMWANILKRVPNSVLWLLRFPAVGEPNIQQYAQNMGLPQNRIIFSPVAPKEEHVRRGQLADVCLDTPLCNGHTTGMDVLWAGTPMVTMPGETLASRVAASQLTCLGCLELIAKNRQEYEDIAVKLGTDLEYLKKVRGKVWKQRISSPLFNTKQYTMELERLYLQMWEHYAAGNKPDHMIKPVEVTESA
The experiment in a line: pull-down; glutathione-Sepharose-immobilized GST-OGT and GST–HCF-1-C incubated with recombinant His6-tagged NRF1 fragments Fr. 1 and Fr. 2; washed extensively with PBS-T; immunoblot with anti-His6 and anti-GST; both purified.

Results are given in words; binding and its absence hold for the method and conditions named. For some of these results: Binding seen in cells or lysates may run through a third protein. Tags and fused reporters may be left off the sequences shown.

B1: O-linked N-acetylglucosamine transferase (OGT), endogenous (enzyme, UniProt O15294 1-1046)
chain: MASSVGNVADSTEPTKRMLSFQGLAELAHREYQAGDFEAAERHCMQLWRQEPDNTGVLLLLSSIHFQCRRLDRSAHFSTLAIKQNPLLAEAYSNLGNVYKERGQLQEAIEHYRHALRLKPDFIDGYINLAAALVAAGDMEGAVQAYVSALQYNPDLYCVRSDLGNLLKALGRLEEAKACYLKAIETQPNFAVAWSNLGCVFNAQGEIWLAIHHFEKAVTLDPNFLDAYINLGNVLKEARIFDRAVAAYLRALSLSPNHAVVHGNLACVYYEQGLIDLAIDTYRRAIELQPHFPDAYCNLANALKEKGSVAEAEDCYNTALRLCPTHADSLNNLANIKREQGNIEEAVRLYRKALEVFPEFAAAHSNLASVLQQQGKLQEALMHYKEAIRISPTFADAYSNMGNTLKEMQDVQGALQCYTRAIQINPAFADAHSNLASIHKDSGNIPEAIASYRTALKLKPDFPDAYCNLAHCLQIVCDWTDYDERMKKLVSIVADQLEKNRLPSVHPHHSMLYPLSHGFRKAIAERHGNLCLDKINVLHKPPYEHPKDLKLSDGRLRVGYVSSDFGNHPTSHLMQSIPGMHNPDKFEVFCYALSPDDGTNFRVKVMAEANHFIDLSQIPCNGKAADRIHQDGIHILVNMNGYTKGARNELFALRPAPIQAMWLGYPGTSGALFMDYIITDQETSPAEVAEQYSEKLAYMPHTFFIGDHANMFPHLKKKAVIDFKSNGHIYDNRIVLNGIDLKAFLDSLPDVKIVKMKCPDGGDNADSSNTALNMPVIPMNTIAEAVIEMINRGQIQITINGFSISNGLATTQINNKAATGEEVPRTIIVTTRSQYGLPEDAIVYCNFNQLYKIDPSTLQMWANILKRVPNSVLWLLRFPAVGEPNIQQYAQNMGLPQNRIIFSPVAPKEEHVRRGQLADVCLDTPLCNGHTTGMDVLWAGTPMVTMPGETLASRVAASQLTCLGCLELIAKNRQEYEDIAVKLGTDLEYLKKVRGKVWKQRISSPLFNTKQYTMELERLYLQMWEHYAAGNKPDHMIKPVEVTESA
For B1, the binding entry in experiment [1] and in experiment [2] was “no binding” in each case.

B2: mNRF1-Neh6L-His6 (Fr. 2; 431–580) (domain or fragment, mouse, UniProt Q61985 431-580, looked up)
chain: GFNPVQASQLEEEFDSDSGLSLDSSHSPSSLSSSEGSSSSSSSSSSSSASSSASSSFSEEGAVGYSSDSETLDLEEAEGAVGYQPEYSKFCRMSYQDPSQLSCLPYLEHVGHNHTYNMAPSALDSADLPPPSTLKKGSKEKQADFLDKQM
notes: NRF1, mouse, Neh6L domain, residues 431-580; The name is printed both as NRF1-Neh6L-His6 and as His6-NRF1-Neh6L; also called His6-NRF1-Neh6L; fragment 2; source: E. coli BL21(DE3), purified (Ni-NTA agarose)
For B2, the binding entry in experiment [3] is reported as “no binding”.

B3: mNRF1-Neh5L/AD2-His6 (Fr. 1; 243–430) (domain or fragment, UniProt Q61985 243-430)
chain: FPADVSSIPEAVPSESESPALQNSLLSPLLTGTESPFDLEQQWQDLMSIMEMQAMEVNTSASEILYNAPPGDPLSTNYSLAPNTPINQNVSLHQASLGGCSQDFSLFSPEVESLPVASSSTLLPLVPSNSTSLNSTFGSTNLAGLFFPSQLNGTANDTSGPELPDPLGGLLDEAMLDEISLMDLAIEE
Regarding B3, the binding entry in experiment [3] is “no binding”.
